Measurements published in the supplement of paper PMC7858590.
± gives the standard deviation of the averaged measurements. In all, about 3,800 compounds were measured (“cell shape (eccentricity) Z-score vs DMSO control”: median about 1.1, lowest 2% from about -4.7 on). The list shows a part of the results.

Each compound was assayed on human monocyte-derived macrophages (M0) (assay: cell shape (eccentricity) Z-score vs DMSO control; higher = more elongated, M2-like morphology). Settings: 20 µM; 24 h; macrophage state: M0 (M-CSF).

SMILES	cell shape (Z-score)
CNCCC(Oc1ccccc1OC)c1ccccc1 (configuration not stated)	1.09
O=C(Nc1ccc(OC(F)(F)F)cc1)c1sccc1NCc1ccnc2ccccc12	5.49
O=C(O)Cc1nn(Cc2ccc(Br)cc2F)c(=O)c2ccccc12	-4.79
CC1CNCCN1S(=O)(=O)c1cccc2cnccc12 (configuration not stated)	10.8
CC1CC(=O)C2=C(O1)OC1(C)CCC3(O)C(C)(C)C=CC(=O)C3(C)C1C2 (configuration not stated)	0.402
COc1cnc(NS(=O)(=O)c2ccc(N)cc2)nc1	0.136
COc1c2c(cc3oc(CO[C@@H]4O[C@H](CO)[C@@H](O)[C@H](O)[C@H]4O)cc(=O)c13)OC(C(C)(C)O)C2 (some centres not stated)	2.25
O=C(C[C@H]1CC[C@@H](NC(=O)c2ccc(F)cc2)[C@H](CO)O1)NCc1ccncn1	2.36
COc1ccc(C=Cc2cc(O)cc(O[C@@H]3O[C@H](CO)[C@@H](O)[C@H](O)[C@H]3O)c2)cc1	3.72
O=C(O)[C@H]1O[C@@H](Oc2cc(O)c3c(=O)c(-c4ccc(O)cc4)coc3c2)[C@H](O)[C@@H](O)[C@@H]1O	-0.717
COc1cc(OC)c2ccc(=O)oc2c1CC(O)C(C)(C)OC (configuration not stated)	-0.0646 ± 0.54
Oc1ccc(CCCCC(CCc2ccc(O)cc2)O[C@@H]2OC[C@@H](O)[C@H](O)[C@H]2O)cc1 (some centres not stated)	1.23
COc1ncnc(N)c1OC	2.66
COC(=O)C[C@H]1C(C)(C)[C@@H](O)[C@@H]2CC3=C4CC(O)O[C@@H](c5ccoc5)[C@]4(C)CCC3[C@@]1(C)C2=O (some centres not stated)	3.09
CO[C@@H]1[C@@H](O[C@@H]2O[C@H](C)[C@@H](O[C@H]3C[C@@](C)(O)[C@H](O)[C@H](C)O3)[C@H](N(C)C)[C@H]2O)[C@@H](CC=O)C[C@@H](C)[C@@H](O[C@H]2CC[C@H](N(C)C)[C@@H](C)O2)/C=C/C=C/C[C@H](C)OC(=O)C[C@H]1O	-0.614
NC(=O)NC(=O)Cc1ccccc1	3.39
COc1ccc(C(=O)c2ccc(C)cc2)c(O)c1	1.63
CCOC(=O)c1ncc2[nH]c3cccc(OC(C)C)c3c2c1C	-0.273
O=C(OCC1OC(Oc2ccc(O)cc2COC(=O)C2(O)C(O)CCC(O)C2O)C(O)C(O)C1O)c1ccccc1 (configuration not stated)	-1.19
O=c1c(O)c(-c2ccc(O)c(O)c2)oc2cc(O)cc(O)c12	1.4
Nc1ncnc2c1c(-c1cccc(OCc3ccccc3)c1)cn2[C@H]1C[C@H](CN2CCCC2)C1	6.27

Reprinted at random: 3 compounds from above.
SMILES	cell shape (Z-score)
COc1ccc(C=Cc2cc(O)cc(O[C@@H]3O[C@H](CO)[C@@H](O)[C@H](O)[C@H]3O)c2)cc1	3.72
Oc1ccc(CCCCC(CCc2ccc(O)cc2)O[C@@H]2OC[C@@H](O)[C@H](O)[C@H]2O)cc1 (some centres not stated)	1.23
CO[C@@H]1[C@@H](O[C@@H]2O[C@H](C)[C@@H](O[C@H]3C[C@@](C)(O)[C@H](O)[C@H](C)O3)[C@H](N(C)C)[C@H]2O)[C@@H](CC=O)C[C@@H](C)[C@@H](O[C@H]2CC[C@H](N(C)C)[C@@H](C)O2)/C=C/C=C/C[C@H](C)OC(=O)C[C@H]1O	-0.614

(listing goes on)

SMILES	cell shape (Z-score)
O=C1NN(C(=O)Nc2ccc(Br)cc2)[C@@H](c2ccccc2)[C@@H]1c1ccccc1	1.43
COc1ccc(-c2coc3cc(O)cc(O)c3c2=O)cc1	1.04
C=C[C@H]1[C@H](O[C@@H]2O[C@H](CO)[C@@H](O)[C@H](O)[C@H]2O)OC=C2C(=O)N3Cc4c([nH]c5ccccc5c4=O)[C@@H]3C[C@H]21	-2.83
CC(C)n1c(/C=C/[C@@H](O)C[C@@H](O)CC(=O)O)c(-c2ccc(F)cc2)c2ccccc21	2.27
CC(C)=CCc1c(O)c(CC=C(C)C)c2c(c1O)C(=O)CC(c1ccccc1)O2 (configuration not stated)	2.25
O=C(c1ccc(F)cc1)C1CCN(CCCCc2ccccc2)CC1	1.2
CCS(=O)(=O)N(C)C1c2cc(C#N)ccc2OC(C)(C)C1O (configuration not stated)	-3.02
C=CC1CN2CCC1CC2[C@@H](O)c1ccnc2ccc(OC)cc12 (some centres not stated)	0.0385
Cc1cc2c(cc1S(N)(=O)=O)S(=O)(=O)CCC2	1.2
COc1ccc2nc(NC(=O)Nc3ccccc3)sc2c1	2.21
C[C@@]12C[C@]3(O)O[C@H](O1)C1(COC(=O)c4ccccc4)[C@H]3C[C@@]12O[C@@H]1O[C@H](COC(=O)c2ccccc2)[C@@H](O)[C@H](O)[C@H]1O	-3.91
COc1cc(-c2cc(O)c(OC)c(OC)c2)cc(O)c1OC	1.43
CNC(=NC#N)NCCSCc1nc[nH]c1C	0.0387
C#Cc1cccc(Nc2ncnc3cc(OCCOC)c(OCCOC)cc23)c1	9.85 ± 1.2
COc1cc(C(C)=O)ccc1OCCCN1CCC(c2noc3cc(F)ccc23)CC1	-1.32
C=C1C2CCC3[C@]4(C)CCC[C@@](C)(C(=O)O)C4CC[C@]3(C2)[C@H]1OC(C)=O (some centres not stated)	1.1
C=CC(C)(C)c1cc2cc3ccoc3cc2oc1=O	-0.961
CCCCCCCCNC[C@@H](O)[C@H](O)[C@@H](O)[C@@H](O)CO	-0.648
CC(C)Nc1ncccn1	-0.0964
COc1ccc(Nc2ncnc3ccc(OC)cc23)cc1	1.84
COC(=O)c1c(C)cc(O)cc1O	1.85

SMILES	cell shape (Z-score)
C=CC(C)(C)c1[nH]cnc1/C=C1\NC(=O)C(C(C)C)NC1=O (configuration not stated)	1.71
CCCCCCCCCCOc1cc2c(O)c(C(=O)OCC)cnc2cc1OCC	1.16
c1ccc(-c2cc3ccccc3[nH]2)cc1	1.23
C[C@]12C=CC(=O)C=C1CC[C@@H]1[C@@H]2[C@@H](O)C[C@@]2(C)[C@H]1CC[C@]2(O)C(=O)CO	-1.34
COc1ccc(C#CC2=CCCN(C(=O)/C=C/c3cc(OC)c(OC)c(OC)c3)C2=O)cc1	1.74
CCCCCCCCC=CCCCCCCCC(=O)NC(CO)Cc1ccc(O)cc1 (configuration not stated)	2.36
C[C@@H]1CC(=O)c2c(ccc3c2C(=O)c2cccc(O)c2C3=O)C1	0.633
CCCCNC(=O)NS(=O)(=O)c1ccc(C)cc1	-0.616
COc1c(C(O)CC(C)C)ccc2c1C(=O)OCc1cc(C)cc(O)c1O2 (configuration not stated)	1.35
CC(c1cc2ccccc2s1)N(O)C(N)=O (configuration not stated)	2.07
O=C1CCc2ccc(OCCCCN3CCN(c4cccc(Cl)c4Cl)CC3)cc2N1	1.22
Cn1cnc2nc(NCCO)nc(NCc3ccccc3)c21	-1.8
CC(OC1OC(CO)C(O)C(O)C1O)C1C(O)CC2C3CCC4=CC(=O)CCC4(C)C3CCC21C (configuration not stated)	1.57
CC(C)(c1ccc(O)cc1)c1ccc(O)cc1	0.967
C=C(C(=O)O)C1CCC(CCC)OC1=O (configuration not stated)	0.0873
CC12CCC(=O)C=C1CCC1C2[C@@H](O)CC2(C)C1CC[C@]2(O)C(=O)COP(=O)(O)O (some centres not stated)	1.08
N#Cc1cc2[nH]c(=O)c(=O)[nH]c2cc1[N+](=O)[O-]	3.7
NS(=O)(=O)c1ccc(S(=O)(=O)Nc2cccc3c(Cl)c[nH]c23)cc1	2.03
COc1c(C(CC(C)C)OC(C)=O)ccc2c1C(=O)OCc1cc(C)cc(O)c1O2 (configuration not stated)	0.161
CN1CCc2cc3c(cc2C(=O)Cc2ccc4c(c2C1)OCO4)OCO3	-0.254
